Our source for the binding values is patent publication US6949694.

These are yes or no findings as the source states them, for the method shown. In cells and extracts the contact can be indirect. Some binding calls cover weakened binding; strength is not graded here. Where a sequence is shown, tags or fusion partners need not be part of it.

For the test, the target named is T1, FY, in vitro translated from the FY encoding EST plasmid (Genbank BG459222), [35S] methionine-labelled (Arabidopsis thaliana) (UniProt Q6NLV4).
T1 sequence (chain, [35S] methionine label): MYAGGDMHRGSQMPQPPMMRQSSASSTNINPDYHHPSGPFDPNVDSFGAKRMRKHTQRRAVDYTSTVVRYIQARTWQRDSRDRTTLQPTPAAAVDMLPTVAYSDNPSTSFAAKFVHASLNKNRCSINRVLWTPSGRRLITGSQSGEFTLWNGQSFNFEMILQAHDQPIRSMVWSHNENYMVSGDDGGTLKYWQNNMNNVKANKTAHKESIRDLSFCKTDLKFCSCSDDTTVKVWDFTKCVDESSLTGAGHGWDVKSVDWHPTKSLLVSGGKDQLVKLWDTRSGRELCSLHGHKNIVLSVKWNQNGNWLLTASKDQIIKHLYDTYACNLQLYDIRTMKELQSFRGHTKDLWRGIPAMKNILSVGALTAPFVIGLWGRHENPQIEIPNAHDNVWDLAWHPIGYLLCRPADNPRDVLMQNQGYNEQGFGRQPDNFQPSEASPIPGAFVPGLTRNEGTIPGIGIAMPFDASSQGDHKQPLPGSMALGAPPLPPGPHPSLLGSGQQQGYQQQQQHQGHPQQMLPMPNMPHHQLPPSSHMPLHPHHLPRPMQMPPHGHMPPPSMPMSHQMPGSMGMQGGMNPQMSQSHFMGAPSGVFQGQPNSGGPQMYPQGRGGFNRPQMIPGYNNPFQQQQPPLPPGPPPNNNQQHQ
In words: GST in vitro pull-down of 35S-labelled in vitro translated FY.

B1: GST:FCA-WW (protein, Arabidopsis thaliana, UniProt O04425 580-747, looked up, not shown: a dimerising Fc or GST)
chain: QTAAPAVSQSVGSVKCTWTEHTSPDGFKYYYNGLTGESKWEKPEEMIVFEREQQKQQQHQEKPTIQQSQTQLQPLQQQPQQVQQQYQGQQLQQPFYSSLYPTPGASHNTQYPSLPVGQNSQFPMSGIGQNAQDYARTHIPVGAASMNDISRTQQSRQSPQELMWKNKA
Regarding B1, the binding result is on record as “binds”.
